Results on one substance are retold here after article PMC2632646.

Chains of the proteins cited; added tags and fusions are not shown.
UniProt Q13526: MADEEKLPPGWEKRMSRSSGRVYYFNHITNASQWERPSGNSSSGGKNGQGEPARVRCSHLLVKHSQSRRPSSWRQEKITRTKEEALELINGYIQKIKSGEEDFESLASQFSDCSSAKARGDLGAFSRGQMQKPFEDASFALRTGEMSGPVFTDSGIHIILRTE

These are yes or no findings as the source states them, for the method shown. In cells and extracts the contact can be indirect. Some results given as binding are weak or reduced against the parent protein; the word gives no strength.

The assay concerns the target erbB2 (human (endogenous in SKBR3)) (UniProt P04626). As to the kind of experiment: co-IP; cell lysates immunoprecipitated with anti-erbB2 antibodies, immunoblot for erbB2, Ubiquitin, Tubulin and Pin1; SKBR3 cells transfected with control or Pin1 siRNA for 72 hours, treated with 100 uM ALLnL 6 hours before lysis. On the technique in general: A western blot detects proteins with antibodies after separation by electrophoresis.

Turning to “Prolyl isomerase Pin1 (from UniProt Q13526 1-163) (enzyme)”, the binding entry was “binds”.
